From the supplement of paper PMC6078165
Values are relative to the signal before dosing, not to a vehicle control; the signal also falls without drug.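 Fibroblast labels name human fibroblasts: mostly primary ones from tissues such as uterus (C12385, HUF), lung (H6013), bone (Hs27A), adrenal (HADF) and skin (WS1), plus mammary HMF and breast cancer-associated Hs343T. The cancer cells are basal-like or mesenchymal-like triple-negative breast cancer lines. The paper calls a changed response a hit when it shifts by more than 3x the replicate standard deviation. The tissue of the other fibroblasts is not given here.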

Tested on: Hs578T
Test: relative JC-1 red fluorescence (viability) vs pre-drug, coculture with fibroblast (fraction); higher = more viable cancer cells
Experimental: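 JC-1 labelled TNBC cells cocultured 1:1 (1,500 cells each) with CellTrace Violet stained primary or stromal fibroblasts in 384-well plates in FluoroBrite medium, treated with one of 42 anticancer drugs at 0.1, 1, 10 or 100 uM. JC-1 red fluorescence (mitochondrial integrity in cancer cells only) was read by plate reader every 8 h for 72 h. Values are normalised to each well's pre-drug value. The stock of one drug was tenfold lower, so its dose labels may be too high.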

N.N.[Cl][Pt][Cl] [Cisplatin]
relative JC-1 red fluorescence
Conditions | 8 h | 16 h | 24 h | 32 h | 40 h | 48 h | 56 h | 64 h | 72 h
0.1 µM | 0.886 | 0.8056 | 0.76 | 0.711 | 0.65 | 0.606 | 0.586 | 0.547 | 0.539
1 µM | 0.877 | 0.772 | 0.721 | 0.669 | 0.603 | 0.565 | 0.548 | 0.5088 | 0.5009

relative JC-1 red fluorescence
Conditions | 8 h | 16 h | 24 h | 32 h | 40 h | 48 h | 56 h | 64 h | 72 h
0.1 µM, coculture fibroblast: C12385 | 0.82 | 0.748 | 0.702 | 0.622 | 0.562 | 0.537 | 0.521 | 0.517 | 0.513
0.1 µM, coculture fibroblast: H6013 | 0.87 | 0.82 | 0.777 | 0.761 | 0.737 | 0.727 | 0.71 | 0.704 | 0.685
0.1 µM, coculture fibroblast: H6019 | 0.773 | 0.688 | 0.659 | 0.563 | 0.526 | 0.503 | 0.48 | 0.467 | 0.441
0.1 µM, coculture fibroblast: H6076 | 0.9057 | 0.8383 | 0.795 | 0.769 | 0.723 | 0.717 | 0.698 | 0.692 | 0.691
0.1 µM, coculture fibroblast: H6231 | 0.872 | 0.758 | 0.703 | 0.659 | 0.603 | 0.58 | 0.541 | 0.526 | 0.517
0.1 µM, coculture fibroblast: HADF | 0.884 | 0.83 | 0.771 | 0.7156 | 0.685 | 0.664 | 0.635 | 0.631 | 0.606
0.1 µM, coculture fibroblast: HCFa | 0.861 | 0.802 | 0.739 | 0.691 | 0.641 | 0.619 | 0.589 | 0.572 | 0.536
0.1 µM, coculture fibroblast: HCPF | 0.8904 | 0.827 | 0.7882 | 0.766 | 0.723 | 0.709 | 0.694 | 0.669 | 0.662
0.1 µM, coculture fibroblast: HHSteC | 0.8374 | 0.756 | 0.682 | 0.623 | 0.565 | 0.5375 | 0.5149 | 0.4925 | 0.462
0.1 µM, coculture fibroblast: HMF | 0.9136 | 0.8405 | 0.773 | 0.74 | 0.686 | 0.658 | 0.622 | 0.611 | 0.6
0.1 µM, coculture fibroblast: HPFa | 0.8814 | 0.79459 | 0.727 | 0.6645 | 0.6242 | 0.5906 | 0.5596 | 0.533 | 0.491
0.1 µM, coculture fibroblast: HUF | 0.827 | 0.709 | 0.661 | 0.555 | 0.495 | 0.461 | 0.432 | 0.425 | 0.419
0.1 µM, coculture fibroblast: Hs27A | 0.906 | 0.867 | 0.828 | 0.805 | 0.747 | 0.738 | 0.706 | 0.702 | 0.666
0.1 µM, coculture fibroblast: Hs343T | 0.924 | 0.807 | 0.73 | 0.701 | 0.626 | 0.604 | 0.5637 | 0.545 | 0.545
0.1 µM, coculture fibroblast: WS1 | 0.809 | 0.736 | 0.733 | 0.646 | 0.601 | 0.597 | 0.582 | 0.595 | 0.605
1 µM, coculture fibroblast: C12385 | 0.811 | 0.733 | 0.6958 | 0.6116 | 0.553 | 0.528 | 0.502 | 0.4985 | 0.4987
1 µM, coculture fibroblast: H6013 | 0.8598 | 0.805 | 0.743 | 0.71 | 0.686 | 0.674 | 0.651 | 0.643 | 0.612
1 µM, coculture fibroblast: H6019 | 0.769 | 0.685 | 0.64 | 0.545 | 0.506 | 0.481 | 0.454 | 0.442 | 0.425
1 µM, coculture fibroblast: H6076 | 0.905 | 0.8261 | 0.774 | 0.739 | 0.704 | 0.692 | 0.678 | 0.666 | 0.664
1 µM, coculture fibroblast: H6231 | 0.878 | 0.798 | 0.738 | 0.693 | 0.63 | 0.602 | 0.566 | 0.545 | 0.537
1 µM, coculture fibroblast: HADF | 0.866 | 0.823 | 0.751 | 0.695 | 0.655 | 0.631 | 0.594 | 0.572 | 0.538
1 µM, coculture fibroblast: HCFa | 0.836 | 0.772 | 0.701 | 0.6321 | 0.564 | 0.54 | 0.496 | 0.475 | 0.435
1 µM, coculture fibroblast: HCPF | 0.907 | 0.816 | 0.763 | 0.722 | 0.661 | 0.637 | 0.626 | 0.581 | 0.561
1 µM, coculture fibroblast: HHSteC | 0.8415 | 0.798 | 0.74 | 0.702 | 0.663 | 0.634 | 0.618 | 0.597 | 0.564
1 µM, coculture fibroblast: HMF | 0.866 | 0.792 | 0.736 | 0.687 | 0.629 | 0.588 | 0.561 | 0.526 | 0.504
1 µM, coculture fibroblast: HPFa | 0.8707 | 0.84 | 0.794 | 0.768 | 0.762 | 0.748 | 0.718 | 0.715 | 0.679
1 µM, coculture fibroblast: HUF | 0.848 | 0.744 | 0.723 | 0.625 | 0.573 | 0.538 | 0.503 | 0.4868 | 0.4805
1 µM, coculture fibroblast: Hs27A | 0.869 | 0.843 | 0.814 | 0.763 | 0.725 | 0.713 | 0.673 | 0.665 | 0.623
1 µM, coculture fibroblast: Hs343T | 0.8727 | 0.7796 | 0.7176 | 0.684 | 0.611 | 0.576 | 0.549 | 0.528 | 0.52
1 µM, coculture fibroblast: WS1 | 0.788 | 0.69 | 0.676 | 0.579 | 0.525 | 0.512 | 0.494 | 0.497 | 0.498
